# These are yes or no findings as the source states them, for the method shown. Some entries that bind do so weakly or less than the wild type.
# T1: Poly(A)-binding protein (Pab1) (S. cerevisiae), P04147
# T1 chain: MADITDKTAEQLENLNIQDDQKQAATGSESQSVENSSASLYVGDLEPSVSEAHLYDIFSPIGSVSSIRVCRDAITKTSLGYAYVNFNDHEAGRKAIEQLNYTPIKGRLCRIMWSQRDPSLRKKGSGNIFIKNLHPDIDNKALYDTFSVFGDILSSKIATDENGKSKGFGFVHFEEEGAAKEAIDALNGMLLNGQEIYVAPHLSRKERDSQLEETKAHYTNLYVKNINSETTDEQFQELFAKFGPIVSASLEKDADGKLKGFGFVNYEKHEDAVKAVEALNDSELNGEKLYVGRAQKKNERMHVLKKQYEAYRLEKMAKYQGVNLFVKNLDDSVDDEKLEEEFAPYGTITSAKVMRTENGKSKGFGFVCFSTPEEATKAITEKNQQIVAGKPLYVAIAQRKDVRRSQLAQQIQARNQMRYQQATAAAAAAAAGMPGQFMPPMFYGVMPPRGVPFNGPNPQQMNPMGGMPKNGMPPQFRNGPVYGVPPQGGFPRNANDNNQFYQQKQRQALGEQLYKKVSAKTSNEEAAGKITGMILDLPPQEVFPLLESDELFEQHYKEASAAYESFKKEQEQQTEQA
# B1: Poly(A)-binding protein (Pab1), P04147 1-577 (protein)
# chain: T1 chain
# Molecular target: T1, Poly(A)-binding protein (Pab1) (S. …)
# Test: SEC; 500 uL of 25 uM Pab1 in 20 mM HEPES pH 6.8, 150 mM KCl, 2.5 mM MgCl2, 1 mM DTT, heated at 42°C for 20 min, centrifuged 3 min at 8,000 g; supernatant on Superose 6 10/300 in 20 mM HEPES pH 7.3, 150 mM KCl, 2.5 mM MgCl2, 1 mM DTT; void volume cutoff 5,000 kDa; both purified
# Settings: remark: other sources report otherwise
binder,measurement,value
B1,binding,binds

# Reference: paper PMC9121323, “Using fluorescence anisotropy to monitor chaperone dispersal of RNA-binding protein condensates”
